Measurements from publication PMC5123574, “Redox cofactors insertion in prokaryotic molybdoenzymes occurs via a conserved folding mechanism” (Scientific Reports, 2016).
Positions count from the first letter of the chain named. In names and notes the source's numbering stands. Results are given in words; binding and its absence hold for the method and conditions named. Some entries that bind do so weakly or less than the wild type. Sequences can lack the tags named with a protein. Blank lines part the entries; values can stand above or below the binder they belong to.

Legend:
[1] = target: T1, NarH, electron-transfer subunit of nitrate reductase A, His-tagged (E. coli) (UniProt P11349); assay: co-purification by Ni-affinity chromatography; His-tagged NarGH complex co-expressed in E. coli JCB4023 and purified by Ni-affinity chromatography as in ref. 9
T1 sequence: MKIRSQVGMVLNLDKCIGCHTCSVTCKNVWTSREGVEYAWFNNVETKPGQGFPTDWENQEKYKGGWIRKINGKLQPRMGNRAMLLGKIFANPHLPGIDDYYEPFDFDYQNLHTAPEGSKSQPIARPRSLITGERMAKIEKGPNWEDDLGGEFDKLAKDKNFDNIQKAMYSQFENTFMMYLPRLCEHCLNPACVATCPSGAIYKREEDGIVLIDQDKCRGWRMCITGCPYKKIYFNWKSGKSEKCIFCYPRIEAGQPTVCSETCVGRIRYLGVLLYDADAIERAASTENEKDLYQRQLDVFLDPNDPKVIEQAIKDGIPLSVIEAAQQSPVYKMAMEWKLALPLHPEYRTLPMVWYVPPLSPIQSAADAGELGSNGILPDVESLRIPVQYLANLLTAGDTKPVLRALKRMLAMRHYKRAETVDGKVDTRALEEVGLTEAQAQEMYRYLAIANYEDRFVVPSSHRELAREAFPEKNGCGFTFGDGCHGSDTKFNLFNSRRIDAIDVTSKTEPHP

[2] = target: T2, NarJ, dedicated chaperone of nitrate reductase A, bacterial two-hybrid fusion (E. coli) (UniProt P0AF26); assay: two-hybrid; bacterial two-hybrid by reconstitution of adenylate cyclase activity; NarG forms as prey against NarJ; β-galactosidase activity (Miller units) in cells at mid-log phase, 30 °C, L-broth, 0.5 mM IPTG
T2 sequence: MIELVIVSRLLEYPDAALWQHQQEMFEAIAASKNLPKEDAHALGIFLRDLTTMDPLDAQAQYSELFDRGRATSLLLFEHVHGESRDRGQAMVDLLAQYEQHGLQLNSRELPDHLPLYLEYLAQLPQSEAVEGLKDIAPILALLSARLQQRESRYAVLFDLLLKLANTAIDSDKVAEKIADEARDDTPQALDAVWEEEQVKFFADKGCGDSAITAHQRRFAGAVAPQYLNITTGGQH

- binding [1]: binds
B1: NarG, nitrate-reducing subunit of nitrate reductase A, as co-expressed with His-tagged NarH (enzyme, UniProt P09152 1-1247)
chain: MSKFLDRFRYFKQKGETFADGHGQLLNTNRDWEDGYRQRWQHDKIVRSTHGVNCTGSCSWKIYVKNGLVTWETQQTDYPRTRPDLPNHEPRGCPRGASYSWYLYSANRLKYPMMRKRLMKMWREAKALHSDPVEAWASIIEDADKAKSFKQARGRGGFVRSSWQEVNELIAASNVYTIKNYGPDRVAGFSPIPAMSMVSYASGARYLSLIGGTCLSFYDWYCDLPPASPQTWGEQTDVPESADWYNSSYIIAWGSNVPQTRTPDAHFFTEVRYKGTKTVAVTPDYAEIAKLCDLWLAPKQGTDAAMALAMGHVMLREFHLDNPSQYFTDYVRRYTDMPMLVMLEERDGYYAAGRMLRAADLVDALGQENNPEWKTVAFNTNGEMVAPNGSIGFRWGEKGKWNLEQRDGKTGEETELQLSLLGSQDEIAEVGFPYFGGDGTEHFNKVELENVLLHKLPVKRLQLADGSTALVTTVYDLTLANYGLERGLNDVNCATSYDDVKAYTPAWAEQITGVSRSQIIRIAREFADNADKTHGRSMIIVGAGLNHWYHLDMNYRGLINMLIFCGCVGQSGGGWAHYVGQEKLRPQTGWQPLAFALDWQRPARHMNSTSYFYNHSSQWRYETVTAEELLSPMADKSRYTGHLIDFNVRAERMGWLPSAPQLGTNPLTIAGEAEKAGMNPVDYTVKSLKEGSIRFAAEQPENGKNHPRNLFIWRSNLLGSSGKGHEFMLKYLLGTEHGIQGKDLGQQGGVKPEEVDWQDNGLEGKLDLVVTLDFRLSSTCLYSDIILPTATWYEKDDMNTSDMHPFIHPLSAAVDPAWEAKSDWEIYKAIAKKFSEVCVGHLGKETDIVTLPIQHDSAAELAQPLDVKDWKKGECDLIPGKTAPHIMVVERDYPATYERFTSIGPLMEKIGNGGKGIAWNTQSEMDLLRKLNYTKAEGPAKGQPMLNTAIDAAEMILTLAPETNGQVAVKAWAALSEFTGRDHTHLALNKEDEKIRFRDIQAQPRKIISSPTWSGLEDEHVSYNAGYTNVHELIPWRTLSGRQQLYQDHQWMRDFGESLLVYRPPIDTRSVKEVIGQKSNGNQEKALNFLTPHQKWGIHSTYSDNLLMLTLGRGGPVVWLSEADAKDLGIADNDWIEVFNSNGALTARAVVSQRVPAGMTMMYHAQERIVNLPGSEITQQRGGIHNSVTRITPKPTHMIGGYAHLAYGFNYYGTVGSNRDEFVVVRKMKNIDWLDGEGNDQVQESVK

- binding [1]: binds
B2: NarG R108A, as co-expressed with His-tagged NarH (enzyme, UniProt P09152 1-1247)
chain: B1 chain with R108A

- binding [2]: binds
B3: full-length NarG, bacterial two-hybrid fusion (pT25-NarG) (enzyme, UniProt P09152 1-1247)
chain: B1 chain

- binding [2]: binds
B4: NarG(Δ1-41), bacterial two-hybrid fusion (pT25-NarG(Δ1–41)) (domain or fragment, UniProt P09152 42-1247)
chain: HDKIVRSTHGVNCTGSCSWKIYVKNGLVTWETQQTDYPRTRPDLPNHEPRGCPRGASYSWYLYSANRLKYPMMRKRLMKMWREAKALHSDPVEAWASIIEDADKAKSFKQARGRGGFVRSSWQEVNELIAASNVYTIKNYGPDRVAGFSPIPAMSMVSYASGARYLSLIGGTCLSFYDWYCDLPPASPQTWGEQTDVPESADWYNSSYIIAWGSNVPQTRTPDAHFFTEVRYKGTKTVAVTPDYAEIAKLCDLWLAPKQGTDAAMALAMGHVMLREFHLDNPSQYFTDYVRRYTDMPMLVMLEERDGYYAAGRMLRAADLVDALGQENNPEWKTVAFNTNGEMVAPNGSIGFRWGEKGKWNLEQRDGKTGEETELQLSLLGSQDEIAEVGFPYFGGDGTEHFNKVELENVLLHKLPVKRLQLADGSTALVTTVYDLTLANYGLERGLNDVNCATSYDDVKAYTPAWAEQITGVSRSQIIRIAREFADNADKTHGRSMIIVGAGLNHWYHLDMNYRGLINMLIFCGCVGQSGGGWAHYVGQEKLRPQTGWQPLAFALDWQRPARHMNSTSYFYNHSSQWRYETVTAEELLSPMADKSRYTGHLIDFNVRAERMGWLPSAPQLGTNPLTIAGEAEKAGMNPVDYTVKSLKEGSIRFAAEQPENGKNHPRNLFIWRSNLLGSSGKGHEFMLKYLLGTEHGIQGKDLGQQGGVKPEEVDWQDNGLEGKLDLVVTLDFRLSSTCLYSDIILPTATWYEKDDMNTSDMHPFIHPLSAAVDPAWEAKSDWEIYKAIAKKFSEVCVGHLGKETDIVTLPIQHDSAAELAQPLDVKDWKKGECDLIPGKTAPHIMVVERDYPATYERFTSIGPLMEKIGNGGKGIAWNTQSEMDLLRKLNYTKAEGPAKGQPMLNTAIDAAEMILTLAPETNGQVAVKAWAALSEFTGRDHTHLALNKEDEKIRFRDIQAQPRKIISSPTWSGLEDEHVSYNAGYTNVHELIPWRTLSGRQQLYQDHQWMRDFGESLLVYRPPIDTRSVKEVIGQKSNGNQEKALNFLTPHQKWGIHSTYSDNLLMLTLGRGGPVVWLSEADAKDLGIADNDWIEVFNSNGALTARAVVSQRVPAGMTMMYHAQERIVNLPGSEITQQRGGIHNSVTRITPKPTHMIGGYAHLAYGFNYYGTVGSNRDEFVVVRKMKNIDWLDGEGNDQVQESVK
